From patent US20230295346A1
These are yes or no findings as the source states them, for the method shown. Some entries that bind do so weakly or less than the wild type.

Amino acid sequences for entries named in this document (tags omitted). Residues count along the entry.
UniProt P20334, residues 24-256: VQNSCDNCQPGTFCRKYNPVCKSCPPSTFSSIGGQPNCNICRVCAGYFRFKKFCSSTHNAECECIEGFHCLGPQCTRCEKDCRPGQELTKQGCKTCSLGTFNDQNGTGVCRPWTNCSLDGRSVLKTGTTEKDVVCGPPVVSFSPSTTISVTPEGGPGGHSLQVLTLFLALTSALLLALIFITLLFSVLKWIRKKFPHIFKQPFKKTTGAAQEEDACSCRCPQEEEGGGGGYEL

Molecular target: CD137 on CD8^+ ConA activated splenocytes / OT-1 CD8 T cells (UniProt P20334)
Experiment: flow cytometry (mean fluorescence units) on CD8+ ConA activated splenocytes, Alexa 488 secondary

binding: binds
B1: CD137 Ab proper (chimeric anti-CD137 antibody, rat variable regions, mouse IgG1 heavy chain constant region) (antibody, V domains shown)
VH: QVQLKEAGPGLVQPTQTLSLTCTVSGFSLTSDGVHWIRQPPGKGLEWMGIIYYDGGTDYNSAIKSRLSISRDTSKSQVFLKINSLQTDDTAMYYCARIHFDYWGQGVMVTVSS
VL: EIVLTQSPTTIAASPGEKVTITCRASSSVSYMYWYQQKSGASPKLWIYDTSKLASGVPNRFSGSGSGTSYSLAINTMETEDAATYYCQQWSSTPLTFGSGTKLEIKR
